Data published in publication PMC8802890, “Identification of U937^JAK3-M511I Acute Myeloid Leukemia Cells as a Sensitive Model to JAK3 Inhibitor” (Frontiers in Oncology, 2022).

Assays:
U937 AML cells = experiment: CCK-8 anti-proliferation, U937; conditions: Homo sapiens, U-937, 72 h, read-out: IC50 Cell line U937
Ba/F3 = experiment: CCK-8 anti-proliferation, parental Ba/F3; assay type: cell-based, Murine; conditions: Mus musculus, BaF3; parental cells, with IL-3; CCK-8, 72 h; mean ± SD
Ba/F3-TEL-JAK1 = experiment: CCK-8 anti-proliferation, Ba/F3-TEL-JAK1; assay type: cell-based, Murine; conditions: Mus musculus, CCK-8, 72 h, mean ± SD

C[C@@H]1CCN(C(=O)CC#N)C[C@@H]1N(C)c1ncnc2[nH]ccc12 [Tofacitinib]
IC50 (U937 AML cells): 180 ± 40 nM
IC50 (Ba/F3): 3370 ± 30 nM
IC50 (Ba/F3-TEL-JAK1): 760 ± 80 nM
